Source: article PMC6728282
Read-outs that look alike come from different tables or passages of the source. Results are given in words; binding and its absence hold for the method and conditions named. In cells and extracts the contact can be indirect. Some binding calls cover weakened binding; strength is not graded here. For some assays here: Tags and fused reporters may be left off the sequences shown. Each block holds one molecule with its values, some of them ahead of it.

Protein sequences, listed by entry. Tags and fused reporters are not part of them.
UniProt P58334: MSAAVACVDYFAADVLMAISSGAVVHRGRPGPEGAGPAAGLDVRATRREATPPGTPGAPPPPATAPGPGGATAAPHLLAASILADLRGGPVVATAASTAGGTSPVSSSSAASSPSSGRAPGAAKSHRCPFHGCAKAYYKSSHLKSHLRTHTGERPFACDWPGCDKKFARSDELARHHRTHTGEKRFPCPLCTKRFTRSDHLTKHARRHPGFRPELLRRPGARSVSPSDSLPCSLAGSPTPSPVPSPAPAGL

Columns and labels:
[1] = target: T1, Flag-tagged mouse DISC1 (Disrupted-in-Schizophrenia 1) (mouse) (UniProt Q811T9); experiment: co-IP; anti-Flag antibody IP from lysates of differentiated CAD cells expressing Flag-DISC1 and KLF16-HA; NP40 lysis buffer (150 mM NaCl, 50 mM Tris-HCl pH 8.0, 1% NP40), antibody 4 h or overnight at 4 °C, protein A-agarose
T1 sequence: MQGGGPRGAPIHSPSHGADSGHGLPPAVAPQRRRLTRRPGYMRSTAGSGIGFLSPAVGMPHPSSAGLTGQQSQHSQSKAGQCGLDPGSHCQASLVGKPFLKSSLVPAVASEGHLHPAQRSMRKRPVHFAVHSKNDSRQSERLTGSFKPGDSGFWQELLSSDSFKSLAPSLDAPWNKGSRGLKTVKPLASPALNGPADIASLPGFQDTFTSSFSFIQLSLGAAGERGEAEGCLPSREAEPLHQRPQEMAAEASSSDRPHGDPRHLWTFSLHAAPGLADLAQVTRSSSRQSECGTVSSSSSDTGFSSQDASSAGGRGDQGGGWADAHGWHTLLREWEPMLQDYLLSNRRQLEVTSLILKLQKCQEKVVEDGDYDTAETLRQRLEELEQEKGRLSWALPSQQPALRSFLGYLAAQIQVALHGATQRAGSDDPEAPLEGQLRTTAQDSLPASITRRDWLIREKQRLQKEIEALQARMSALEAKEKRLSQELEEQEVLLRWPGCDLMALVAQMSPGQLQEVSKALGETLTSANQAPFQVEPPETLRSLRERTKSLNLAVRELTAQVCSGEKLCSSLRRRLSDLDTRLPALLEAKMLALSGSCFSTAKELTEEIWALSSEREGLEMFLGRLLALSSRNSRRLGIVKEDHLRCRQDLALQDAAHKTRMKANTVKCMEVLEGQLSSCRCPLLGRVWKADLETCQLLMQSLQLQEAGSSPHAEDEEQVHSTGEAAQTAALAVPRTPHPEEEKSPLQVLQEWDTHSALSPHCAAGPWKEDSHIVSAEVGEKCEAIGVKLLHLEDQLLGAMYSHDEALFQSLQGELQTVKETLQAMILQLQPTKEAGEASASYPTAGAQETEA

[2] = target: T2, endogenous DISC1 of differentiated CAD cells (mouse (endogenous in CAD cells)) (UniProt Q811T9); experiment: co-IP; IP of endogenous proteins (anti-SIN3A named for Fig. 3f; reciprocal IPs in Fig. 3e) from lysates of differentiated CAD cells expressing KLF16-HA, without or with Flag-DISC1 overexpression (which enhanced the KLF16-HA/SIN3A coIP); NP40 lysis buffer (150 mM NaCl, 50 mM Tris-HCl pH 8.0, 1% NP40), 4 °C, protein A-agarose
T2 sequence: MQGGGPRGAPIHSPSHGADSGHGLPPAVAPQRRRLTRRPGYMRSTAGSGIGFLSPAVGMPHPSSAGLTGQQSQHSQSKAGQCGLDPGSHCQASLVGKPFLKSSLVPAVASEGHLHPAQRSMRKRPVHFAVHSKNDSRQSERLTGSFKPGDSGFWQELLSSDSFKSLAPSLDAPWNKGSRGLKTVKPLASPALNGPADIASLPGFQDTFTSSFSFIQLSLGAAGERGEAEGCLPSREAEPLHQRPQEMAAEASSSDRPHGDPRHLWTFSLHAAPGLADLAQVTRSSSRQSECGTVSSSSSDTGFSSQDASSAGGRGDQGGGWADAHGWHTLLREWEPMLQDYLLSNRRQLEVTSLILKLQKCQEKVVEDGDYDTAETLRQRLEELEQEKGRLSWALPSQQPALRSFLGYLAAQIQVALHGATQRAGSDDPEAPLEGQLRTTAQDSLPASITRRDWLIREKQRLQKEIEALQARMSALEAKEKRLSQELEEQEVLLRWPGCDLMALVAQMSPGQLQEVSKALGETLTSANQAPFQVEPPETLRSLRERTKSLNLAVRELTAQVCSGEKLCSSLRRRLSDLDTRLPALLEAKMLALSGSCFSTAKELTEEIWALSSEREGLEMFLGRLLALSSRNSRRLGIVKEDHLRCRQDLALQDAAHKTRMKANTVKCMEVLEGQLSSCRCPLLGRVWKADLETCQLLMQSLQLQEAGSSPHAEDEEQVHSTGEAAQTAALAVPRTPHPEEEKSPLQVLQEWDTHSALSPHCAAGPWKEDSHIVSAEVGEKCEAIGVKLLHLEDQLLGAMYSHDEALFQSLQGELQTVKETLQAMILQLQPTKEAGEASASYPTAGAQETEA

[3] = target: T3, endogenous SIN3A of differentiated CAD cells (mouse (endogenous in CAD cells)) (UniProt Q60520); experiment: as above
T3 sequence: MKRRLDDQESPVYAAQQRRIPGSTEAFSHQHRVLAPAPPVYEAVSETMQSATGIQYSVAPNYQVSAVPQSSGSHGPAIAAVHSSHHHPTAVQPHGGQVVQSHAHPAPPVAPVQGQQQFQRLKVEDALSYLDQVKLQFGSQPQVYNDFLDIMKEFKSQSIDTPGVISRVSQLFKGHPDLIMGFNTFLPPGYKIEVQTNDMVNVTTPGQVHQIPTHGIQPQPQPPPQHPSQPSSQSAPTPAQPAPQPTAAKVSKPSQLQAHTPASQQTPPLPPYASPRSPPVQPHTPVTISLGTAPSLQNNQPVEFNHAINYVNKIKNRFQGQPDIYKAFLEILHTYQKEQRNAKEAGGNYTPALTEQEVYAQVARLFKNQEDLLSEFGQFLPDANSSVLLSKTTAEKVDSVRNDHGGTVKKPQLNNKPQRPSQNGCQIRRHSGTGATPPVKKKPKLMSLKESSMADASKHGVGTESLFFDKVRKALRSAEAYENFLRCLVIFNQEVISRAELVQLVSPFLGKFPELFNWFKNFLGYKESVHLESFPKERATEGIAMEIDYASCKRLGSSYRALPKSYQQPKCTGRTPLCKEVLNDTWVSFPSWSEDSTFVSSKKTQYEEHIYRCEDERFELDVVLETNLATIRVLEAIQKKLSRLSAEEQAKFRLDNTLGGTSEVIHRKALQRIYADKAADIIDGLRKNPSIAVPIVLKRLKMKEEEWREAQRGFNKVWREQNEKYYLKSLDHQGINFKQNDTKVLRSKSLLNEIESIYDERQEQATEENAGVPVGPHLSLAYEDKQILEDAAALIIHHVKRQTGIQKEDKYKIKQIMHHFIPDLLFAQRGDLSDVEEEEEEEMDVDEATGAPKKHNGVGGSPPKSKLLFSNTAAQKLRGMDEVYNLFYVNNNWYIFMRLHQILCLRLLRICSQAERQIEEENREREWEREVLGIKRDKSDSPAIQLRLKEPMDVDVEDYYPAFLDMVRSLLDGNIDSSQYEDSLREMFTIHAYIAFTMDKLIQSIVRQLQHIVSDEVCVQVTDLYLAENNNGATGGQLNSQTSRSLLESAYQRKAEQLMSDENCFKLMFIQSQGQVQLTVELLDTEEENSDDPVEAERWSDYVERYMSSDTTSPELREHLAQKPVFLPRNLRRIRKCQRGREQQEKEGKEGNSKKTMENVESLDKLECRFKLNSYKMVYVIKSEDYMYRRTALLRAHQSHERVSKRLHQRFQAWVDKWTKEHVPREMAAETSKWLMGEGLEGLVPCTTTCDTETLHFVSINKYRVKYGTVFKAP

[4] = target: T2, endogenous DISC1 of differentiated CAD cells (mouse (endogenous in CAD cells)); experiment: as above; remark: listed apart in the source
[5] = target: T3, endogenous SIN3A of differentiated CAD cells (mouse (endogenous in CAD cells)); experiment: as above; remark: listed apart in the source

binding [1]: binds
binding [2]: binds
binding [3]: binds
Molecule: KLF16-HA (mouse Krüppel-like factor 16, HA-tagged) (from UniProt P58334 1-251)

binding [4]: binds
B1: endogenous SIN3A of differentiated CAD cells (protein, UniProt Q60520 1-1274)
chain: MKRRLDDQESPVYAAQQRRIPGSTEAFSHQHRVLAPAPPVYEAVSETMQSATGIQYSVAPNYQVSAVPQSSGSHGPAIAAVHSSHHHPTAVQPHGGQVVQSHAHPAPPVAPVQGQQQFQRLKVEDALSYLDQVKLQFGSQPQVYNDFLDIMKEFKSQSIDTPGVISRVSQLFKGHPDLIMGFNTFLPPGYKIEVQTNDMVNVTTPGQVHQIPTHGIQPQPQPPPQHPSQPSSQSAPTPAQPAPQPTAAKVSKPSQLQAHTPASQQTPPLPPYASPRSPPVQPHTPVTISLGTAPSLQNNQPVEFNHAINYVNKIKNRFQGQPDIYKAFLEILHTYQKEQRNAKEAGGNYTPALTEQEVYAQVARLFKNQEDLLSEFGQFLPDANSSVLLSKTTAEKVDSVRNDHGGTVKKPQLNNKPQRPSQNGCQIRRHSGTGATPPVKKKPKLMSLKESSMADASKHGVGTESLFFDKVRKALRSAEAYENFLRCLVIFNQEVISRAELVQLVSPFLGKFPELFNWFKNFLGYKESVHLESFPKERATEGIAMEIDYASCKRLGSSYRALPKSYQQPKCTGRTPLCKEVLNDTWVSFPSWSEDSTFVSSKKTQYEEHIYRCEDERFELDVVLETNLATIRVLEAIQKKLSRLSAEEQAKFRLDNTLGGTSEVIHRKALQRIYADKAADIIDGLRKNPSIAVPIVLKRLKMKEEEWREAQRGFNKVWREQNEKYYLKSLDHQGINFKQNDTKVLRSKSLLNEIESIYDERQEQATEENAGVPVGPHLSLAYEDKQILEDAAALIIHHVKRQTGIQKEDKYKIKQIMHHFIPDLLFAQRGDLSDVEEEEEEEMDVDEATGAPKKHNGVGGSPPKSKLLFSNTAAQKLRGMDEVYNLFYVNNNWYIFMRLHQILCLRLLRICSQAERQIEEENREREWEREVLGIKRDKSDSPAIQLRLKEPMDVDVEDYYPAFLDMVRSLLDGNIDSSQYEDSLREMFTIHAYIAFTMDKLIQSIVRQLQHIVSDEVCVQVTDLYLAENNNGATGGQLNSQTSRSLLESAYQRKAEQLMSDENCFKLMFIQSQGQVQLTVELLDTEEENSDDPVEAERWSDYVERYMSSDTTSPELREHLAQKPVFLPRNLRRIRKCQRGREQQEKEGKEGNSKKTMENVESLDKLECRFKLNSYKMVYVIKSEDYMYRRTALLRAHQSHERVSKRLHQRFQAWVDKWTKEHVPREMAAETSKWLMGEGLEGLVPCTTTCDTETLHFVSINKYRVKYGTVFKAP

binding [5]: binds
B2: endogenous DISC1 of differentiated CAD cells (protein, UniProt Q811T9 1-852)
chain: MQGGGPRGAPIHSPSHGADSGHGLPPAVAPQRRRLTRRPGYMRSTAGSGIGFLSPAVGMPHPSSAGLTGQQSQHSQSKAGQCGLDPGSHCQASLVGKPFLKSSLVPAVASEGHLHPAQRSMRKRPVHFAVHSKNDSRQSERLTGSFKPGDSGFWQELLSSDSFKSLAPSLDAPWNKGSRGLKTVKPLASPALNGPADIASLPGFQDTFTSSFSFIQLSLGAAGERGEAEGCLPSREAEPLHQRPQEMAAEASSSDRPHGDPRHLWTFSLHAAPGLADLAQVTRSSSRQSECGTVSSSSSDTGFSSQDASSAGGRGDQGGGWADAHGWHTLLREWEPMLQDYLLSNRRQLEVTSLILKLQKCQEKVVEDGDYDTAETLRQRLEELEQEKGRLSWALPSQQPALRSFLGYLAAQIQVALHGATQRAGSDDPEAPLEGQLRTTAQDSLPASITRRDWLIREKQRLQKEIEALQARMSALEAKEKRLSQELEEQEVLLRWPGCDLMALVAQMSPGQLQEVSKALGETLTSANQAPFQVEPPETLRSLRERTKSLNLAVRELTAQVCSGEKLCSSLRRRLSDLDTRLPALLEAKMLALSGSCFSTAKELTEEIWALSSEREGLEMFLGRLLALSSRNSRRLGIVKEDHLRCRQDLALQDAAHKTRMKANTVKCMEVLEGQLSSCRCPLLGRVWKADLETCQLLMQSLQLQEAGSSPHAEDEEQVHSTGEAAQTAALAVPRTPHPEEEKSPLQVLQEWDTHSALSPHCAAGPWKEDSHIVSAEVGEKCEAIGVKLLHLEDQLLGAMYSHDEALFQSLQGELQTVKETLQAMILQLQPTKEAGEASASYPTAGAQETEA
